Test results published in article PMC7819943, “Rice protein-binding microarrays: a tool to detect cis-acting elements near promoter regions in rice”.
Some of the results follow.

By UniProt entry, the sequences of proteins in these tests, tags left out.
UniProt Q0JBA9, entry or part of it: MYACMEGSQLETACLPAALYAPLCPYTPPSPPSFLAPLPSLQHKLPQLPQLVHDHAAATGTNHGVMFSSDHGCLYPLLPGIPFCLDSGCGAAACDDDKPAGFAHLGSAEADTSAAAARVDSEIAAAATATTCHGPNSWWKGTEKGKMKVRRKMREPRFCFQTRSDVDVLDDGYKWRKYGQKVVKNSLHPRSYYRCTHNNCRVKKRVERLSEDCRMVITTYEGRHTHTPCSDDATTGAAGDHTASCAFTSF

target: OsWRKY34 (Oryza sativa, UniProt Q0JBA9 1-250); assay: protein-binding microarray (RPBM); PBS, 2% BSA, 51.3 ng/ul salmon testes DNA, 50 uM zinc acetate, 200 nM TF, 25 C, 1 h; high values mean tight binding; conditions: protein: recombinant; tags: N-terminal polyhistidine and DsRed monomer fusion (pET32a); label: CyDye5-dUTP incorporated in the synthesized complementary strand; 3' TTTTT single-stranded linker to array surface; dsDNA, one strand shown
Method in brief: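 The binding signal is fluorescence intensity per array feature (arbitrary units). Readings came from an Axon 4000B scanner after a washed, 2% BSA-blocked, double-stranded custom Agilent array had been incubated for 1 h at 25 °C with 200 nM protein and 50 µM zinc acetate. The protein was a Ni–NTA-purified transcription factor fused N-terminally to polyhistidine and DsRed, expressed in E. coli BL21-CodonPlus.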

Sequence	binding signal
GCCCAGTCCAATCTATCATCAGATTCCTTTTATACAATATCGGAGTCACCTAGTGCAG	8040 fluorescence intensity (a.u.)
AACACAGCCTAAATCTATCTTCTTTTTTTTAATTACTATTCGGAGTCACCTAGTGCAG	9840 fluorescence intensity (a.u.)
CCGTGCCGCCGCCGGCGACCGTCGTCCGTCGCTCACGCTGCGGAGTCACCTAGTGCAG	8580 fluorescence intensity (a.u.)
GTCTCATGTCACACTCACGTAGCTATATTTTTTATATTATCGGAGTCACCTAGTGCAG	9120 fluorescence intensity (a.u.)
CGTACTATAATTTTGTCATTCCTGTTGAAATTTTATAATTCGGAGTCACCTAGTGCAG	9340 fluorescence intensity (a.u.)
GATCCTTACCCGTTCCTCTTGACATCACCCGTTGCCGTTCCGGAGTCACCTAGTGCAG	10800 fluorescence intensity (a.u.)
GGGCAAGCTAGCCGGCGGGTGGGGATGAGGTCGCCGACAACGGAGTCACCTAGTGCAG	10200 fluorescence intensity (a.u.)
CTGTTCAGAGACCAGCCTTATCTCTCTTTCGTTTTCTCTCCGGAGTCACCTAGTGCAG	9670 fluorescence intensity (a.u.)
CATTCGCTTATTCCTCTATGTGTGCCACAATTCTCACAGCCGGAGTCACCTAGTGCAG	12400 fluorescence intensity (a.u.)
TAGAAGAGCGCGTTGACACCGTTGACTTTGGATTTTCCGTCGGAGTCACCTAGTGCAG	18700 fluorescence intensity (a.u.)
AGGGGTTGTAATTGGTTTAGAGGTGGAGGTAGATAAGAAACGGAGTCACCTAGTGCAG	10100 fluorescence intensity (a.u.)
AACACCGTCATGTTGCCTTCACAGAATAGGGTCAAGCCCCCGGAGTCACCTAGTGCAG	8070 fluorescence intensity (a.u.)
GATTGCAATTGATGATTATGTCCGTTATCAATTCCTACTCCGGAGTCACCTAGTGCAG	8960 fluorescence intensity (a.u.)
TCATTTCTGCATTATTGGGAGGGGCGGATCTACAGTGTTACGGAGTCACCTAGTGCAG	15200 fluorescence intensity (a.u.)
GGAGTTTGGTTGGTTGGTGGTGTTCTTGACGGGGCATGGACGGAGTCACCTAGTGCAG	31200 fluorescence intensity (a.u.)
AAACTCAACCAGCAGTCTCGTCTTAACCCCTAGCAGCTACCGGAGTCACCTAGTGCAG	11600 fluorescence intensity (a.u.)
GTCAAGTTCTATCCCTTGGGCATCAACAATATCTTATGACCGGAGTCACCTAGTGCAG	8950 fluorescence intensity (a.u.)
ACCTAAACCAATATAATTTCTTTGCTCTCGCTTGCATTTACGGAGTCACCTAGTGCAG	8840 fluorescence intensity (a.u.)
CAACGTTGACCCGGGTTGACCCACGGTTCTTCAACAAATGCGGAGTCACCTAGTGCAG	20700 fluorescence intensity (a.u.)
CACCGACCATTACAGTCTGCGCTTCCTTCTGGACCAACGTCGGAGTCACCTAGTGCAG	12300 fluorescence intensity (a.u.)
TGTGCCCGCTGCGCCAAGGGCTACGCCGTCCAGTCCGACTCGGAGTCACCTAGTGCAG	48500 fluorescence intensity (a.u.)

Part of the list above in a different format:
GATCCTTACCCGTTCCTCTTGACATCACCCGTTGCCGTTCCGGAGTCACCTAGTGCAG
  binding signal: 10800 fluorescence intensity (a.u.)
GGGCAAGCTAGCCGGCGGGTGGGGATGAGGTCGCCGACAACGGAGTCACCTAGTGCAG
  binding signal: 10200 fluorescence intensity (a.u.)
CTGTTCAGAGACCAGCCTTATCTCTCTTTCGTTTTCTCTCCGGAGTCACCTAGTGCAG
  binding signal: 9670 fluorescence intensity (a.u.)

(list continues)

Sequence	binding signal
ATAACTTCAGTTATTTTGGCAACCCTTTTTGTGTTCATTACGGAGTCACCTAGTGCAG	10400 fluorescence intensity (a.u.)
TCGGGGTTAAGGTTGAAAGATGATTGGCATGTGTATTTTTCGGAGTCACCTAGTGCAG	12300 fluorescence intensity (a.u.)
CAAACCAAGTCACGGTACACGCGTGGACCGCGCACAGATTCGGAGTCACCTAGTGCAG	8420 fluorescence intensity (a.u.)
ACATGTCCTCATTTGTTCGATTTAGCTCTACTGCCTTCTACGGAGTCACCTAGTGCAG	9280 fluorescence intensity (a.u.)
CCTCACCACGAATACGAAACTATATCAGTTCTGCTGCTTTCGGAGTCACCTAGTGCAG	8580 fluorescence intensity (a.u.)
CCTCCATCTTGGAGGTTGCAACTGGTTTATTATCTTTGTTCGGAGTCACCTAGTGCAG	9240 fluorescence intensity (a.u.)
GTCCGCAAGCTCCTATATAGTACTTCCATCTCATTTTGACCGGAGTCACCTAGTGCAG	8030 fluorescence intensity (a.u.)
CTGCTCACCACCATCACGCATTTTCTTTTACCGGCCGGATCGGAGTCACCTAGTGCAG	10700 fluorescence intensity (a.u.)
TGAAATGTATATCTAATCATTTATTGTTGTGCTTGTATCTCGGAGTCACCTAGTGCAG	9180 fluorescence intensity (a.u.)
TTTAGCAATAATCGTGTCCTCGCAGCGAAGCAATTGCCCACGGAGTCACCTAGTGCAG	8260 fluorescence intensity (a.u.)
GCTCTTGGAGATGCTCTTAATTTGTGCTAACAATCCTGATCGGAGTCACCTAGTGCAG	8250 fluorescence intensity (a.u.)
TTTTTTTCTTGGTATATATCAAATTTGGGTTAACCGGCCTCGGAGTCACCTAGTGCAG	8590 fluorescence intensity (a.u.)
TAGCGATCGCATTTTGGGCCAGATTTGGGTTAGTATGTTTCGGAGTCACCTAGTGCAG	9480 fluorescence intensity (a.u.)
CGGATTTTTTTGCACGAACACGCCAGCACTAATCTTGAGGCGGAGTCACCTAGTGCAG	8290 fluorescence intensity (a.u.)
TCTACCAAGGGATTCTTGTATTTCGTTGCTCACATCCATCCGGAGTCACCTAGTGCAG	9360 fluorescence intensity (a.u.)
TTTTTTTGTAACATACACATTTACTTCTCTTAGCCAAGGCCGGAGTCACCTAGTGCAG	8120 fluorescence intensity (a.u.)
CGCGTGCACGTTTTTCAATCTGTTAAATGGTGTGTTTTTTCGGAGTCACCTAGTGCAG	8090 fluorescence intensity (a.u.)
CGACTTTGTTTTACCATTGTTTTTTTTGTCTTGTTTTAGTCGGAGTCACCTAGTGCAG	10600 fluorescence intensity (a.u.)
CCACCCACTTGATCGTCTTCATAAGACAGTTTTTACTAATCGGAGTCACCTAGTGCAG	8570 fluorescence intensity (a.u.)
AGCTGGTGCGCAACGTTGCACTTTTCCCAGTCCTTCGCATCGGAGTCACCTAGTGCAG	8550 fluorescence intensity (a.u.)
ATGAAGATTGGGAGGTCGAGTTTGGCCCGCATAGGTTCTCCGGAGTCACCTAGTGCAG	8150 fluorescence intensity (a.u.)
